In publication PMC8842666:
No constants are given. Whether binding was seen depends on the method and setting. Binding seen in cells or lysates may run through a third protein. Tags and fused reporters may be left off the sequences shown.

Chains of the proteins cited; added tags and fusions are not shown. Residues count along the entry.
UniProt P25963: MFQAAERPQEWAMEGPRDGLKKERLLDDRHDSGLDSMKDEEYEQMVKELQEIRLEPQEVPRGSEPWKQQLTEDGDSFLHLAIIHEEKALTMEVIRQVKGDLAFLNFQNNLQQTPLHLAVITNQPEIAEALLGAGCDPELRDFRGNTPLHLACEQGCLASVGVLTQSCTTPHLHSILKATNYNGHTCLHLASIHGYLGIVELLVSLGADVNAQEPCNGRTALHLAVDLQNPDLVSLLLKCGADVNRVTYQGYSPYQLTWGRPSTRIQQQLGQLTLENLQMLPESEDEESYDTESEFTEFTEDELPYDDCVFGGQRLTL
UniProt Q13546: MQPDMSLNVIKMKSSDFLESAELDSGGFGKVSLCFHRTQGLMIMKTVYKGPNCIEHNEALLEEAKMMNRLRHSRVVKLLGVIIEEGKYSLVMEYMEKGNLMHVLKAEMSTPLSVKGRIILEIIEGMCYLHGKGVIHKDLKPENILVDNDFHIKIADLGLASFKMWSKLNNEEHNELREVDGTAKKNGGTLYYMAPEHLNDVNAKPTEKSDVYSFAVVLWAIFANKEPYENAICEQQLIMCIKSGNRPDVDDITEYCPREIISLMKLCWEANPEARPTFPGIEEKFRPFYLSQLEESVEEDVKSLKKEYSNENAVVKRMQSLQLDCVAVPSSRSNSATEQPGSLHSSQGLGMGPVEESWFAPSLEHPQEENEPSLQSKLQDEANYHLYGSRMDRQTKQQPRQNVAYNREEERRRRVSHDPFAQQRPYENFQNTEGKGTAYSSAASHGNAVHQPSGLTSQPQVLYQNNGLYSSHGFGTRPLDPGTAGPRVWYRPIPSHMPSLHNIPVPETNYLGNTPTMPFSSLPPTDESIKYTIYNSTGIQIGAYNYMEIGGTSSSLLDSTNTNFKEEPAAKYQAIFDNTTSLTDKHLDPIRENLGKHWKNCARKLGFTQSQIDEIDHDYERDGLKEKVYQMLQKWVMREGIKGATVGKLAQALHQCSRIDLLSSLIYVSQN
UniProt Q86WV6: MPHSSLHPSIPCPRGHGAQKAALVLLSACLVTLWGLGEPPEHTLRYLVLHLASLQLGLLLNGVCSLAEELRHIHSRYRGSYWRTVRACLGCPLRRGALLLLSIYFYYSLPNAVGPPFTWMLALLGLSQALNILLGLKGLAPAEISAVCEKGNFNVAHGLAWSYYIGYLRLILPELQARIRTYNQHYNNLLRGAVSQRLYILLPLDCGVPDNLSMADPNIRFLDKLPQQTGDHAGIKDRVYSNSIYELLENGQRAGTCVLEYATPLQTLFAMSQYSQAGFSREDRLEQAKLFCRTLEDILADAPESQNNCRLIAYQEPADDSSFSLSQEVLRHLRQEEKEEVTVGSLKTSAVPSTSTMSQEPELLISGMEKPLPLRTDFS
UniProt P19838, residues 1-433: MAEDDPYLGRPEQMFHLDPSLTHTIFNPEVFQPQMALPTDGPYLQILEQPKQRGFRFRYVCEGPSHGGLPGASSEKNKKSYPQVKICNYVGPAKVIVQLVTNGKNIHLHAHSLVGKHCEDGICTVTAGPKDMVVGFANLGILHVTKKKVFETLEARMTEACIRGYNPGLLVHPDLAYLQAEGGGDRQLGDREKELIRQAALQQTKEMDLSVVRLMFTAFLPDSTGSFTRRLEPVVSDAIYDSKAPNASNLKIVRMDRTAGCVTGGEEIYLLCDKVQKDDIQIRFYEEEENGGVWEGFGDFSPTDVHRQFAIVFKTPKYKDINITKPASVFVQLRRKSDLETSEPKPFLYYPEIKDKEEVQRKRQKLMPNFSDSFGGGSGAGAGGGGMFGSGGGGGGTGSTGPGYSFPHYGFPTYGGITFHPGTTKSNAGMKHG
UniProt Q04206: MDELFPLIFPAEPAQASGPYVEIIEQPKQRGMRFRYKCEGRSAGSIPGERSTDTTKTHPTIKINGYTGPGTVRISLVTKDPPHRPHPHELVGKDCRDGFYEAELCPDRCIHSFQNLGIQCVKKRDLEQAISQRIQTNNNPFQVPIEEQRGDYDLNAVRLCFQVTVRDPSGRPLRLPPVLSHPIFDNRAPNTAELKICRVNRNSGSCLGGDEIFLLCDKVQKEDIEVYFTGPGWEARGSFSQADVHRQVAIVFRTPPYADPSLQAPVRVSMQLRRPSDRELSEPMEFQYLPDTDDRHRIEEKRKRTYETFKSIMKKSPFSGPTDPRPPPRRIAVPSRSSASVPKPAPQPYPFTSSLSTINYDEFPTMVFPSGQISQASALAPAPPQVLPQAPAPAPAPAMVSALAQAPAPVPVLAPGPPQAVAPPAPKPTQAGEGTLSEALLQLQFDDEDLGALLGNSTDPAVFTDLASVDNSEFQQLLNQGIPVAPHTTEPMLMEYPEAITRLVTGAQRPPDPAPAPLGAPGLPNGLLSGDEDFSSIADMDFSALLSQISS

Key:
Assay in all cases: co-IP; HEK293T co-transfected for 24–36 h; RIPA lysis buffer (50 mM Tris–HCl pH 7.4, 150 mM NaCl, 1% NP-40, 1 mM EDTA, 5% glycerol); anti-Flag or anti-HA antibody at 4°C overnight, protein G agarose; washes with 300 mM NaCl; immunoblot
Flag-IKKe = molecular target: T1, Flag-IKKe (UniProt Q14164)
T1 sequence: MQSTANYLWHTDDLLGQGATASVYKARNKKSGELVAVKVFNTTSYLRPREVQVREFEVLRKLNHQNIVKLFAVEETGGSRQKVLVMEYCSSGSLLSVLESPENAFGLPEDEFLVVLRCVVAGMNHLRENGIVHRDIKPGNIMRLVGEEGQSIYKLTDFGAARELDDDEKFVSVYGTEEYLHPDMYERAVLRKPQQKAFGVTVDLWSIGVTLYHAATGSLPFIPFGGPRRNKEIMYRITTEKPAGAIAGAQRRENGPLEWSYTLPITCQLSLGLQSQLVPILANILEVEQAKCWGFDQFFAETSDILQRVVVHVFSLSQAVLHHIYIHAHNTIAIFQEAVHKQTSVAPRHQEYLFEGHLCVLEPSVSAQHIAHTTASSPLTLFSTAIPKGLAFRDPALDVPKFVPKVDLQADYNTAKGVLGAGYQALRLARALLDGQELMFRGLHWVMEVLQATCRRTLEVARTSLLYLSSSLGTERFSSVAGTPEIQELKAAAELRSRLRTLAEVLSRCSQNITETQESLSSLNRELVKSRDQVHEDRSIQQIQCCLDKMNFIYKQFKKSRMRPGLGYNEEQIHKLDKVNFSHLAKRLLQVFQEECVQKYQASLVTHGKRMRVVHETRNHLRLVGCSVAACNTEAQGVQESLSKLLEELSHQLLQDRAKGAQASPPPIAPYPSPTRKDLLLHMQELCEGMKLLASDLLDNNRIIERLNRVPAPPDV

Flag-IRF3 = molecular target: T2, Flag-IRF3 (UniProt Q14653)
T2 sequence: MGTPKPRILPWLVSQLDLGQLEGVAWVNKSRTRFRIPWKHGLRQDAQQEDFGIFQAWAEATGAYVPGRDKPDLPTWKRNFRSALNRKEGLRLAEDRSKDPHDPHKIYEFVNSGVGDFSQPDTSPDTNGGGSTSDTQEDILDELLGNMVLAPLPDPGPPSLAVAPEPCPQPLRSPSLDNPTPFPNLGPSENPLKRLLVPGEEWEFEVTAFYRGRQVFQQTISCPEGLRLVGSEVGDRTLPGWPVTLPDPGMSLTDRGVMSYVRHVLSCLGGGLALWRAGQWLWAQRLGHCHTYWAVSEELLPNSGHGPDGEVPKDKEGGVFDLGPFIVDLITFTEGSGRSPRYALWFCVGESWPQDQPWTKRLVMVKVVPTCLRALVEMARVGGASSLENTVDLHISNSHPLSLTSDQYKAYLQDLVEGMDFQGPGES

Flag-IRF7 = molecular target: T3, Flag-IRF7 (UniProt Q92985)
T3 sequence: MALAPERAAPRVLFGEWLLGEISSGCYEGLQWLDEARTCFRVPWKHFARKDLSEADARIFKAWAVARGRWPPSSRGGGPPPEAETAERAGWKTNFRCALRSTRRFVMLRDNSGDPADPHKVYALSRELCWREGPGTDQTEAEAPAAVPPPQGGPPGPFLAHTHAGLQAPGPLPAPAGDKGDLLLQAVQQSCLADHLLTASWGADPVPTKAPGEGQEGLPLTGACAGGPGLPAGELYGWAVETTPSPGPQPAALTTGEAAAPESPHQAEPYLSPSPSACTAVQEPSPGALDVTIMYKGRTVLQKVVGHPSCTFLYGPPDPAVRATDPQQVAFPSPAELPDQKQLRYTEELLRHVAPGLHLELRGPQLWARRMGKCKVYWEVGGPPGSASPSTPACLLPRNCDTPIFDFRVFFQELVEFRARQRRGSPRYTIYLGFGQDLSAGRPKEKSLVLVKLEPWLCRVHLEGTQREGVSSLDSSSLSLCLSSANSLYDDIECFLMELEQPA

Flag-IkBα = Flag-IkBα (UniProt P25963)
Flag-RIP1 = Flag-RIP1 (UniProt Q13546)
Flag-STING = Flag-STING (UniProt Q86WV6)
Flag-TBK1 = molecular target: T4, Flag-TBK1 (UniProt Q9UHD2)
T4 sequence: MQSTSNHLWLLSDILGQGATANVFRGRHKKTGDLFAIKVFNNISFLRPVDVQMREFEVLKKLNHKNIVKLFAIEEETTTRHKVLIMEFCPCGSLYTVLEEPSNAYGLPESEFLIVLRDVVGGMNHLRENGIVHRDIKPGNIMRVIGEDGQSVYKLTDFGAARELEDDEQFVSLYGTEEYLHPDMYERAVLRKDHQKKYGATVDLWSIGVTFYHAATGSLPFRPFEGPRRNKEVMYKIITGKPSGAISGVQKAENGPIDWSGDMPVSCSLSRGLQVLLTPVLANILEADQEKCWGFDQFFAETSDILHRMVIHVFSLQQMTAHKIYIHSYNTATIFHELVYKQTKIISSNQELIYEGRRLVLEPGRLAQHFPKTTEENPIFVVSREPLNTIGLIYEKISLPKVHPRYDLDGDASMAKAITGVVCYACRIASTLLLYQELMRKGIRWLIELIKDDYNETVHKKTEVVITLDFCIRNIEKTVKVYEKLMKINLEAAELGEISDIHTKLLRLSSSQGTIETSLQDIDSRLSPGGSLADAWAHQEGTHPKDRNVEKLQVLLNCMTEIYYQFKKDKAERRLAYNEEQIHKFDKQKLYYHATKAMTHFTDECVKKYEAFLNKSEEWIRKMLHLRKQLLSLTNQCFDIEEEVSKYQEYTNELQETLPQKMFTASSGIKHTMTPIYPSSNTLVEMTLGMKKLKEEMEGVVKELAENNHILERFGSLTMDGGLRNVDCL

Flag-p50 = Flag-p50 (UniProt P19838)
Flag-p65 = Flag-p65 (UniProt Q04206)

Measured: binding

B1: HA-ASB17 (protein, UniProt Q8WXJ9 1-295)
chain: MSKSTKLCGKTSCPRSNIFCNLLDKIVKRPSLQFLGQWGYHCYEPRIYRSLAKILRYVDLDGFDALLTDYIAFVEKSGYRFEVSFNLDFTEICVNTILYWVFARKGNPDFVELLLKKTKDYVQDRSCNLALIWRTFTPVYCPSPLSGITPLFYVAQTRQSNIFKILLQYGILEREKNPINIVLTIVLYPSRVRVMVDRELADIHEDAKTCLVLCSRVLSVISVKEIKTQLSLGRHPIISNWFDYIPSTRYKDPCELLHLCRLTIRNQLLTNNMLPDGIFSLLIPARLQNYLNLEI
no binding: all assays above
